Experimental data reported in the supplement of paper PMC10338343.
± gives the standard deviation. This is a selection; strong and weak results do not stand in their true shares. Many entries were measured with a wide error.

Assays:
[1] = tested on: MILI (PIWIL2) piRISC loaded with piRNA #1 (26 nt); experiment: pre-steady-state target cleavage rate (min^-1); higher = faster piRNA-guided slicing of the target; details: guide: piRNA #1 5'p-UGAGGUAGUAGGUUGUAUAGUAUCCA; auxiliary factor: 500 nM mouse GTSF1
Procedure, shortened: (§1)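 In this Cleave-'n-Seq assay, uncleaved targets were sequenced and normalised to depth and to weakly complementary targets. They came from a transcribed, DNA-blocked target RNA library […] mixed with 1 nM active affinity-purified piRISC carrying one synthetic guide, with or without 500 nM GTSF1 partner protein, in HEPES–potassium acetate buffer at 33 °C for 0–8 or 0–960 min. After three trials were pooled and k3 was capped at 0.0001 min^-1, the pre-steady-state cleavage rate was obtained from a burst-and-steady-state fit.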

[2] = tested on: MIWI (PIWIL1) piRISC loaded with piRNA #1 (30 nt); experiment: as above; details: guide: piRNA #1 5'p-UGAGGUAGUAGGUUGUAUAGUAUCCAGAGG; auxiliary factor: 500 nM mouse GTSF1
Procedure, shortened: as §1

[3] = tested on: EfPiwi piRISC loaded with piRNA #1 (26 nt); experiment: pre-steady-state target cleavage rate (min^-1); guide: piRNA #1 5'p-UGAGGUAGUAGGUUGUAUAGUAUCCA; MIWI and MILI are mouse PIWI proteins and EfPiwi is from a freshwater sponge; tags in brackets are library labels; higher = faster piRNA-guided slicing of the target; details: auxiliary factor: 500 nM Ephydatia muelleri Gtsf1
Procedure, shortened: as §1

Sequence	pre-steady-state target cleavage rate [1]	pre-steady-state target cleavage rate [2]	pre-steady-state target cleavage rate [3]
GGAGACCUAUGAUAUCAACGAUCUACCUCA	0.000753 ± 0.0095	0.000775 ± 0.0084	
GGAGACCUAUGUAUACAAACCUACUACCUCA	0.00122 ± 0.0049	0.000664 ± 0.0057	0.00181 ± 0.0046
GGAGACCUAACUAUACAACCUGACUACCUCA	0.00117 ± 0.012	0.000143 ± 0.041	
GGAGACCUAUGUAUACAAGGAACUACCUCA	0.00296 ± 0.0028	0.000244 ± 0.0079	
GGAGACCUAUGAUAUCAACCUACUACGCUCA	0.00163 ± 0.0054	0.00026 ± 0.0097	
GGAGACCUAUGAUAACAACCUGCUACCUCA	0.00155 ± 0.0035	0.000806 ± 0.0048	
GGAGACCUAUGAUAUGUUCCUUACUACCUCA	0.000147 ± 0.017	0.000223 ± 0.0075	
GGAGACCUAUGAUAUCAACCUACUACCUUCA	0.00188 ± 0.0033	0.000229 ± 0.0093	
GGAGACCUAUGAUUACAUCCUACUAGCUCA	0.00651 ± 0.0025	0.000851 ± 0.0052	0.00121 ± 0.0057
GGAGACCUAUGAUAACAACCUAGAUCCUCA	0.000746 ± 0.0072	0.000195 ± 0.012	
GGAGACCUAUGAAUACAACCAACUAGCUCA	0.00223 ± 0.003	0.000781 ± 0.0073	0.00021 ± 0.019
GGAGACCUAUGUAAACAACCUACAACCUCA	0.0135 ± 0.0041	0.000766 ± 0.0071	0.000106 ± 0.025
GGAGACCUAUCUAUACAUACCUACUACCUCA	0.00118 ± 0.0072	0.000696 ± 0.011	
GGAGACCUAUCUAUACAUGGUACUACCUCA	0.00194 ± 0.0048	0.00274 ± 0.0041	0.00196 ± 0.0053
GGAGAGGAUACUAUACAACCUACUAGCUGA	0.00126 ± 0.005	0.00182 ± 0.0039	
GGAGACCUAUGAUAUCAACCUACUACCUGA	0.00102 ± 0.0036	0.000168 ± 0.009	
GGAGACCUAUGAAUACAACCAACUACCUCA	0.00243 ± 0.0026	0.000197 ± 0.011	
GGAGACCUAUGAUAUGUUCCAUACUACCUCA	0.000557 ± 0.01	0.00108 ± 0.0051	0.00048 ± 0.0065
GGAGACCUAUGAUAUGUUGCUUACUACCUCA	0.000888 ± 0.0068	0.00174 ± 0.0037	0.00187 ± 0.0029
GGAGACCUAUGAAUACAACCUACUUGCUCA	0.00181 ± 0.0042	0.000309 ± 0.0054	
GGAGACCUAUGAUAUGUUGCUACUACCUCCA	< 0.0001	0.00075 ± 0.0065	0.000831 ± 0.0075
GGAGACCUAUGAUAUCAACCUACGACCUCA	0.00225 ± 0.0041	0.000217 ± 0.013	0.000498 ± 0.011
GGAGACCUAUGAUAUCAACCUACUACGUCA	0.000469 ± 0.0073	0.000341 ± 0.0058	0.00074 ± 0.007
GGAGACCUAUGAUUACAACGUACUAGCUCA	0.00212 ± 0.0044	0.000124 ± 0.017	0.000862 ± 0.0062
GGAGACGAUACUAUACAACCUAGAUGGAGA [g9:g24:cont:t1A]	0.00112 ± 0.0068	0.000869 ± 0.0093	0.00285 ± 0.0039
GGAGACCUAUGAUAUGUACCUCCUACCUCA	0.000165 ± 0.016	0.000159 ± 0.017	0.000605 ± 0.011
GGAGACCUAUGAUAACAACCUACUACCUGA	0.00163 ± 0.0032	0.000377 ± 0.0056	0.000876 ± 0.0059
GGAGACCUAUGAAUACAACCUACUACCAGA	0.00225 ± 0.003	0.000199 ± 0.012	0.000641 ± 0.0078

Only pre-steady-state target cleavage rate [1], for some of the entries so far:
Sequence,pre-steady-state target cleavage rate [1]
GGAGACGAUACUAUACAACCUAGAUGGAGA [g9:g24:cont:t1A],0.00112 ± 0.0068
GGAGACCUAUGAUAUGUACCUCCUACCUCA,0.000165 ± 0.016
